Positions count from the first letter of the chain named. Results are given in words; binding and its absence hold for the method and conditions named. Some entries that bind do so weakly or less than the wild type. Blank lines part the entries; values can stand above or below the binder they belong to.
How the values were obtained:
[1] = molecular target: T1, CAPRIN-1 protein on the cell membrane surface of cancer cells (UniProt Q14444); assay: flow cytometry
T1 sequence (looked up): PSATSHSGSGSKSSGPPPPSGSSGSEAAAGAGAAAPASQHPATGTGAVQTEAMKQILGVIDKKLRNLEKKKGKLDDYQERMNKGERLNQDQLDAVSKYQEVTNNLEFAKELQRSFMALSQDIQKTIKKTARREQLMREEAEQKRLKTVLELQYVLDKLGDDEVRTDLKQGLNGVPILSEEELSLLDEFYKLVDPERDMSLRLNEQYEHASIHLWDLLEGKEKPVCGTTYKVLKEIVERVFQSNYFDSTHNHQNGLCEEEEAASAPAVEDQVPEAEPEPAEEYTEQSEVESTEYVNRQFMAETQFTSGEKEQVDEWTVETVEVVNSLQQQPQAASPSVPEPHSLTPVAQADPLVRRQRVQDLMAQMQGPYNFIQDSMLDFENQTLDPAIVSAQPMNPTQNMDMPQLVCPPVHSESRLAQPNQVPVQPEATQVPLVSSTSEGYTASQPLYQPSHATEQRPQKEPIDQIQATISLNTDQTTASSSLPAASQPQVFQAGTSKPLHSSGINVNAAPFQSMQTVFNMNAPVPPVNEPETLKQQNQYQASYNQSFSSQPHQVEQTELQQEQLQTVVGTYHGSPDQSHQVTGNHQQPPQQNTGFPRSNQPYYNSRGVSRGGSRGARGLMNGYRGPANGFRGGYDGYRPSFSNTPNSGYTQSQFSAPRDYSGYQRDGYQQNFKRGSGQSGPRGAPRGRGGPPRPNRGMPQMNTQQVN

[2] = molecular target: T2, CAPRIN-1 protein (UniProt Q14444); assay: ELISA
T2 sequence (looked up): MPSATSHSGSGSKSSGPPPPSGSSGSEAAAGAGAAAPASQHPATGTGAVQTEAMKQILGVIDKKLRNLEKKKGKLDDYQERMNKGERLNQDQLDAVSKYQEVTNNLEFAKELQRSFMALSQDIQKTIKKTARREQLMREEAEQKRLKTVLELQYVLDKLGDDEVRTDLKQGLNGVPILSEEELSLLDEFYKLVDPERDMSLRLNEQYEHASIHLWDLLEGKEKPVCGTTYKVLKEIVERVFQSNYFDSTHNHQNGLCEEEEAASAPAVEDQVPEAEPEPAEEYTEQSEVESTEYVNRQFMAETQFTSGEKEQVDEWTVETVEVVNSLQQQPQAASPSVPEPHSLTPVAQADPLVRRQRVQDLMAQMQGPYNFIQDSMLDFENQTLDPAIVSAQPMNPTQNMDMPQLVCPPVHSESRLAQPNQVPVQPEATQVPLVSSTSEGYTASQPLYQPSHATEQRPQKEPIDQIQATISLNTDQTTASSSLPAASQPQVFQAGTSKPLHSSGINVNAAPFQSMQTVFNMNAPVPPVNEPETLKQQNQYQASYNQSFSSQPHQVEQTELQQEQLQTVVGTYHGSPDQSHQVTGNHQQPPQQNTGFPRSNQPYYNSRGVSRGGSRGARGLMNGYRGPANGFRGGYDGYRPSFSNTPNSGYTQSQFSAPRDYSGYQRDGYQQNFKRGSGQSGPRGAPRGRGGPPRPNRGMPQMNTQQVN

B1: Mouse chimeric antibody #10 (antibody, V domains shown)
VH: DAELVKPGASVKISCKASGYTFTDHSIHWVQQKPEQGLEWIGYISPGNGNIKYNEKFKGKATLTADKSSSTAYMQLNSLTSEDSAVYFCKRSLGRGGPYYFDYWGQGTTVTVSS
VL: DIVLTQAAPSLPVTPGESVSISCRSSKSLLHSNGNTYLYWFLQRPGQSPQLLIYRMSNLASGVPDRFSGSGSGTAFTLRISRVEAEDVGVYYCMQHREYPVTFGSGPN
binding [1]: binds

B3: Mouse chimeric antibody #26 (antibody, V domains shown)
VH: GPDLVKPGASVKISCKASGYSFTAYYMHWVKQSHGKSLEWIGRVNPNNGGTTYNQKFKGKAILTVDKSSSTAYMELRSLTFEDSAVYYCARRIYYGYFDYWGQGTTVTVSS
VL: AFFAVSLGQRATISCKASQSVDYDGDSYMNWYQQKPGQPPKLLIYVASNLESGVPARFSGSGSGTDFTLNIHPVEEEDAATYYCQQSNEDPYTFGGGTKLEIKQ
binding [1]: binds

B4: Mouse chimeric antibody #15 (antibody, V domains shown)
VH: EVQLHQFGAELVKPGASVKISCKASGYTFTDYNMDWVKQSHGKSLEWIGDINPNYDSTSYNQKFKGKATLTVDKSSSTAYMELRSLTSEDTAVYYCARSRSYDYEGFAYWGQGTLVTVSA
VL: DIQMTQSPASLSASVGETVTITCRASGNIHNYLAWYQQKQGKSPQLLVYNAKTLADGVPSRFSGSGSGTQYSLKINSLQPEDFGSYYCQHFWSTLTFGAGTKLELKR
binding [1]: binds

B5: Conjugate 49 (antibody, human IgG1, V domains shown)
VH: GAELVRSGASVKMSCKASGYSFTDYNMYWVKQTPGQGLEWIGYIYPGNGGTNYNQKFKGKATLTADTSSSTAYMQISSLTSEDSAVYFCARDYDDGGYAMDYWGQGTTVTVSS
VL: DIQMTQSPASLSASVGETVTITCRASGNIHNYLTWYQQKQGKSPQLLVYNAKTLADGVPSRFSGSGSGTQYSLKINRLQPEDFGSYYCQHFWNIPWTFGGGTKLNSR
binding [1]: binds
binding [2]: binds

B6: Mouse chimeric antibody #9 (antibody, V domains shown)
VH: B5 VH
VL: B5 VL
binding [1]: binds

B7: Mouse chimeric antibody #5 (antibody, V domains shown)
VH: AVTLDESGGGLQTPGGALSLVCKASGFTFSGYDMLWVRQAPGKGLEWVAGIGSTGGGTDYGAAVKGRATISRDNGQSTVRLQLNNLRAEDTATYYCAKVAGGCNSGYCRDSPGSIDAWGHGTEVIVS
VL: AVTQQPASVSANPGETVKITCSGGGSRNYYGWYQQKSPGSVPVTVIYYDDQRPSNIPSRFSGALSGSTSTLTITGVQADDEAVYFCGSADSNTYEGSFGAGTTLTVL
binding [1]: binds

B8: humanized anti-CAPRIN-1 antibody #70 (antibody, human IgG1, V domains shown)
VH: EVQLVESGGGLVQPGGSLRLSCAASGFSLSSHSLGWVRQAPGKGLEWIGDIRSGGSAYYANWAKGRFTISRDNSKNTLYLQMNSLRAEDTAVYFCTRTNGPSDLTNRLDLWGQGTLVTVSS
VL: QVLTQSPSSLSASVGDRVTINCQASQSLYNNENLAWFQQKPGKVPKRLIYGASTLASGVSSRFSGSGSGTEFTLTISSLQCEDFAIYYCLGEFSCGSADCFAFGGGTKVEIK
binding [1]: binds

B9: Mouse chimeric antibody #32 (antibody, V domains shown)
VH: B8 VH with F94Y
VL: B8 VL
binding [1]: binds

B10: Mouse chimeric antibody #34 (antibody, V domains shown)
VH: B8 VH with F94Y
VL: EQVLTQSPSSLSASVGDRVTINCQASQSLYNNENLAWFQQKPGKVPKRLIYGASTLASGVSSRFSGSGSGTEFTLTISNLQPEDFAIYYCLGEFSCGSADCFAFGGGTKVEIK
binding [1]: binds

B14: Mouse chimeric antibody #35 (antibody, V domains shown)
VH: B8 VH
VL: B10 VL with Q2I, I87T
binding [1]: binds

B15: Mouse chimeric antibody #37 (antibody, V domains shown)
VH: B8 VH
VL: B10 VL
binding [1]: binds

B16: Mouse chimeric antibody #33 (antibody, V domains shown)
VH: B8 VH
VL: B8 VL
binding [1]: binds

B19: Mouse chimeric antibody #36 (antibody, V domains shown)
VH: B8 VH with F94Y
VL: B10 VL with Q2I, I87T
binding [1]: binds

Other lines, results leading:

binding [1]: binds
B2: mouse chimeric antibody #3 (antibody, V domains shown)
VH: AVTLDESGGGLQTPGGGLSLVCKASGFTFSSFDMGWVRQAPGKGLEFVAQINDAGSRTWYATAVKGRATISRDNGQTTVRLQLNNLRAEDTGTYYCTRGSGYVGAGAIDAWGHGTEVIVS
VL: AALTQPSSVSANPGETVKITCSGGSGYYGWYQQQKSPGSAPVTVIYQNDKRPSDIPSRFSGSGSGSTNTLTITGVQAEDEAVYFCGRYDSTDSGIFGAGTTLTVL

binding [1]: binds
B11: humanized anti-CAPRIN-1 antibody #74 (antibody, human IgG1, V domains shown)
VH: B8 VH
VL: B10 VL

binding [1]: binds
B12: humanized anti-CAPRIN-1 antibody #72 (antibody, human IgG1, V domains shown)
VH: B8 VH
VL: B10 VL with Q2I, I87T

binding [1]: binds
B13: humanized anti-CAPRIN-1 antibody #73 (antibody, human IgG1, V domains shown)
VH: B8 VH with F94Y
VL: B10 VL with Q2I, I87T

binding [1]: binds
B17: mouse chimeric antibody #2 (antibody, V domains shown)
VH: B8 VH with V2Q, Q3S, F94Y
VL: B8 VL

binding [1]: binds
B18: humanized anti-CAPRIN-1 antibody #71 (antibody, human IgG1, V domains shown)
VH: B8 VH with F94Y
VL: B10 VL

binding [1]: binds
B20: mouse chimeric antibody #4 (antibody, V domains shown)
VH: QSLEESGGDLVKPGASLTLTCTASGFSFSGSYYMSWVRQAPGKGLEWIAYIYIGDGVTAYANWAKGRFTISKASSTTVTLQMTSLTAADTATYFCARGNKLWGPGTLVTVSS
VL: DVVMTQTPASVEAAVGGTVTIKCQASQSISSYLAWYQQKPGQPPKRLIYDASNLDSGVPSRFKGSGSGTDFTITISDLECADAATYYCQCTAVSSATIYGNAFGGGTEVVVK

binding [1]: binds
B21: mouse chimeric antibody #1 (antibody, V domains shown)
VH: AVTLDESGGGLQMSRGGLSLVCKASGFDFSSYQMNWIRQAPGKGLEFVAAINKFGNSTGHGAAVKGRVTISRDNGQSTVRLQLNNLRAEDTAIYFCTKHAYGYCGSGTWCAAGEIDAWGHGTEVIVSS
VL: QAASTQPSSVSANPGETVEITCSGGGSYSYGWFQQKSPGSAPVTVIYYNNKRPSDIPSRFSGSKSGSTGTLTITGVQADDEAVYYCGSGDSTDTAVFGAGTTLTVLG

— US20250249092A1 (TORAY INDUSTRIES, published 2025)
